The results in this text go back to publication PMC8200297.

The target in one test is T1, mCherry-viperin (human) (UniProt Q8WXG1).
T1 sequence: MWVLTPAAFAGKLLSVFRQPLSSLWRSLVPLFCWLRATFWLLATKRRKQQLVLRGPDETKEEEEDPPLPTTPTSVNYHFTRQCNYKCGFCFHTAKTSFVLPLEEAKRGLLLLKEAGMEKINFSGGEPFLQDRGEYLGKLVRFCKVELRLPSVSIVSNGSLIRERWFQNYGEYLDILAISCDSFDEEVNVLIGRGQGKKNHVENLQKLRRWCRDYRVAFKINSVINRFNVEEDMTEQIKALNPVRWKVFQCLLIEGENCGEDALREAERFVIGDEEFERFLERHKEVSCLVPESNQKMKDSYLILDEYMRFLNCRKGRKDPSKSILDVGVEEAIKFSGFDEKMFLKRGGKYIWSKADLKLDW
The experiment in a line: co-IP; co-transfected 293FT cells; NP-40 lysis buffer (1% NP-40, 150 mM NaCl, 50 mM Tris pH 8.0); IP with rabbit anti-mCherry and Protein A/G agarose at 4°C; blot with anti-Myc.

Another test concerns the target T2, viperin-FLAG (human) (UniProt Q8WXG1).
T2 sequence: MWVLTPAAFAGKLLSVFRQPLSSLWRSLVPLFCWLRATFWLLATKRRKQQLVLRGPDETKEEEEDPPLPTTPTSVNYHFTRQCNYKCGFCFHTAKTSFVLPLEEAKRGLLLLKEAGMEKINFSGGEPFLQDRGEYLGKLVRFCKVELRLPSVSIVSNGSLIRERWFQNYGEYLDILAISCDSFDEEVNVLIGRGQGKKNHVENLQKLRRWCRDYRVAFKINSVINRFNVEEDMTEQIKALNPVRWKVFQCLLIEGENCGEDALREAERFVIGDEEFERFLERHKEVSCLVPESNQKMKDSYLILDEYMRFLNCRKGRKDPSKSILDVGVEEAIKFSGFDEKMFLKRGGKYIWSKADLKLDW
The experiment in a line: proximity ligation; in situ, co-transfected Huh-7 cells; mouse anti-FLAG (viperin) and rabbit anti-Myc (Pex19); control: mouse isotype control with rabbit anti-Myc.

No constants are given. Whether binding was seen depends on the method and setting. Binding seen in cells or lysates may run through a third protein. Some results given as binding are weak or reduced against the parent protein; the word gives no strength. Tags and fused reporters may be left off the sequences shown.

B1: Pex19-Myc (pCMV6-PEX19-Myc/FLAG), in 293FT cells (protein, UniProt P40855 1-299)
chain: MAAAEEGCSVGAEADRELEELLESALDDFDKAKPSPAPPSTTTAPDASGPQKRSPGDTAKDALFASQEKFFQELFDSELASQATAEFEKAMKELAEEEPHLVEQFQKLSEAAGRVGSDMTSQQEFTSCLKETLSGLAKNATDLQNSSMSEEELTKAMEGLGMDEGDGEGNILPIMQSIMQNLLSKDVLYPSLKEITEKYPEWLQSHRESLPPEQFEKYQEQHSVMCKICEQFEAETPTDSETTQKARFEMVLDLMQQLQDLGHPPKELAGEMPPGLNFDLDALNLSGPPGASGEQCLIM
In the case of B1, the binding entry with mCherry-viperin (human) is reported as “binds”.

B2: PEX19-Myc (pCMV6-PEX19-Myc/FLAG), in Huh-7 cells (protein, UniProt P40855 1-299)
chain: MAAAEEGCSVGAEADRELEELLESALDDFDKAKPSPAPPSTTTAPDASGPQKRSPGDTAKDALFASQEKFFQELFDSELASQATAEFEKAMKELAEEEPHLVEQFQKLSEAAGRVGSDMTSQQEFTSCLKETLSGLAKNATDLQNSSMSEEELTKAMEGLGMDEGDGEGNILPIMQSIMQNLLSKDVLYPSLKEITEKYPEWLQSHRESLPPEQFEKYQEQHSVMCKICEQFEAETPTDSETTQKARFEMVLDLMQQLQDLGHPPKELAGEMPPGLNFDLDALNLSGPPGASGEQCLIM
As to B2, in the test with viperin-FLAG (human), the binding result was “binds”.
